According to PubChem BioAssay AID720504 (National Center for Advancing Translational Sciences (NCATS), 2013):
Hit rate of the full screen: of about 360,000 compounds, about 10,000 (2.8%) were called active. Inconclusive means that the source gave no clear call. Such entries were picked first, then a sample of the others. Calls come from the whole dose curve; as a rule, active = well fitted inhibition curve with a large enough effect; inconclusive = small, poorly fitted or top-dose-only effect; inactive = flat fitted curve, though single readings scatter. Where the call is inconclusive, the potency comes from a doubtful curve fit.

Chains of the proteins cited; added tags and fusions are not shown.
UniProt P53350, whole entry, looked up: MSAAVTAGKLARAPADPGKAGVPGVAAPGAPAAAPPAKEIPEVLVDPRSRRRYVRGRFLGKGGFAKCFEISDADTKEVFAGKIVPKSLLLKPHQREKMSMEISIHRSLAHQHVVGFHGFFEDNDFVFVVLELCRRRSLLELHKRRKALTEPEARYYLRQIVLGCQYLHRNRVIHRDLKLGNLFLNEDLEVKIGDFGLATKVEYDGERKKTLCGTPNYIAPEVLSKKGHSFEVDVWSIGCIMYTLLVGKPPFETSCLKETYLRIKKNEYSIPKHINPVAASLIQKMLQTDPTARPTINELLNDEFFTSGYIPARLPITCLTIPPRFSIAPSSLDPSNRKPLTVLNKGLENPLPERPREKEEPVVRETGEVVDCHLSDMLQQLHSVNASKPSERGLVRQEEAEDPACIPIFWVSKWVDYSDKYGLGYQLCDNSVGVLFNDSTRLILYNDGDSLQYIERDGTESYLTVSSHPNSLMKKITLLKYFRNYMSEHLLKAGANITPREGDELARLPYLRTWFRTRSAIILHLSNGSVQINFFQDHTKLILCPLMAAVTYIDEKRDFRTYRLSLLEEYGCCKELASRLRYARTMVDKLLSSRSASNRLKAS

The compounds below were run against Serine/threonine-protein kinase PLK1 (Homo sapiens) (UniProt P53350) (assay: qHTS for Inhibitors of PLK1-PDB (polo-like kinase 1 - polo-box domain): Primary Screen). Settings: Plk1 PBD binding of FITC phosphopeptide, fluorescence polarization.
% is set by controls: 0 for no effect and ±100 for the full control effect; potency is the fitted concentration of half-maximal effect.
Note: nearly all actives have a fitted effect of over 65% in size.
Throughout, for max response, negative = inhibition: series mostly up to about 57 µM.

| Compound | max response, negative = inhibition | Potency |
| --- | --- | --- |
| Cc1cc(N2CCCC2)nc(SCC(=O)c2ccccc2)n1 | inactive: -0.561% | – |
| CCCCNS(=O)(=O)c1ccc2nc(SCC(=O)N3CC(C)OC(C)C3)[nH]c2c1 (stereo not given) | inconclusive: -33.5% [inhibitor] | – |
| O=C(COC(=O)c1ccncc1)Nc1cccc(Cl)c1 | – | active: 21.2 µM |
| Cc1ccc(S(=O)(=O)N2[C@@H](c3ccc(Br)cc3)C(C(=O)O)=CC[C@H]2c2cccc(C)c2)cc1 | – | inconclusive: 21.2 µM [inhibitor, partial curve] |
| CC(=O)N1CCc2c(sc(NC(=O)c3ccc([N+](=O)[O-])o3)c2C#N)C1 | – | active: 23.8 µM |
| C[C@H](O)[C@@H]1C(=O)N2CCc3ccc(N4CCOCC4)cc3[C@@H]2C[C@@H]1N(C)C(=O)C(C)(C)C | – | inconclusive: 26.7 µM [inhibitor, single point] |
| O=C(N/N=C/c1ccc(N2CCOCC2)o1)c1cccc([N+](=O)[O-])c1 | – | inconclusive: 26.7 µM [inhibitor, single point] |
| O=C(Nc1nsc(-c2ccccc2)n1)c1ccncc1 | inactive: 0.306% | – |
| O=C1NC2c3ccccc3C(=O)N2c2c1cnn2-c1ccccc1 (stereo not given) | – | inconclusive: 23.8 µM [inhibitor, partial curve] |
| NC(=O)c1ccc(NC(=O)COC(=O)/C=C/c2ccc3c(c2)OCO3)cc1 | – | active: 26.7 µM |
| COc1ccc(C(=O)NC2=NCCS2)cc1S(=O)(=O)N1CCCCC1C (stereo not given) | inactive: -13.3% | – |
| COc1ccc(NC(=O)C(C)SCc2ccccc2)cc1 (stereo not given) | – | inconclusive: 29.9 µM [inhibitor, single point] |
| CC(C)(C)C(=O)Nc1scc(-c2ccc(-c3ccccc3)cc2)c1C(=O)O | – | inconclusive: 26.7 µM [inhibitor, partial curve] |
| O=C(CCCc1cccs1)Nc1nccs1 | inactive: -13.8% | – |
| C=CCSc1nc2ccsc2c(=O)n1-c1ccccc1 | – | inconclusive: 23.8 µM [inhibitor, partial curve] |
| CC(C)(C)c1nnc(NS(=O)(=O)c2ccc(F)cc2)s1 | – | active: 9.47 µM |
| CC1CCc2nc3ccc(S(=O)(=O)N4CCC(C(=O)NCc5ccccc5Cl)CC4)cc3c(C(=O)O)c2C1 (stereo not given) | – | inconclusive: 75.2 µM [inhibitor, partial curve] |
| O=C(O)c1ccc(N2C(=O)/C(=C/C=C/c3ccccc3)SC2=S)cc1 | – | active: 26.7 µM |
| Cc1ccc(OCc2nnc(N)s2)cc1C | – | inconclusive: 37.7 µM [inhibitor, single point] |
| Cc1ccc(/C=C/C(=O)N2CCc3ccccc32)o1 | – | inconclusive: 21.2 µM [inhibitor, single point] |
| c1ccc2[nH]c(CN3CCN(c4ncnc5c4oc4ccccc45)CC3)nc2c1 | – | inconclusive: 29.9 µM [inhibitor, partial curve] |
| Cc1ccc(-c2nn(-c3ccccc3)cc2/C=N/NC(=O)c2ccc3c(c2)OCO3)cc1 | – | inconclusive: 26.7 µM [inhibitor, single point] |
| COCCNC(=O)CN1C(=O)NC(c2ccccc2)(c2ccccc2)C1=O | – | inconclusive: 23.8 µM [inhibitor, single point] |
| N=c1nc2n(cc1F)C1OC(CO)C(O)C1O2 (stereo not given) | inactive: -3.45% | – |

Quoted from the listing:
In max response, negative = inhibition, COc1ccc(C(=O)NC2=NCCS2)cc1S(=O)(=O)N1CCCCC1C (stereo not given) is entered as inactive: -13.3%
In max response, negative = inhibition, O=C(CCCc1cccs1)Nc1nccs1 is entered as inactive: -13.8%
In Potency, Cc1ccc(OCc2nnc(N)s2)cc1C is entered as inconclusive: 37.7 µM [inhibitor, single point]

Carrying on.

| Compound | max response, negative = inhibition | Potency |
| --- | --- | --- |
| CCN1CCN(C(=S)NC(C)c2ccccc2)CC1 (stereo not given) | – | inconclusive: 37.7 µM [inhibitor, single point] |
| Cc1ccc2[nH]c3nc(NN)nnc3c2c1 | inactive: -12.1% | – |
| O=C(NNc1ccc([N+](=O)[O-])cc1)C1CC1c1ccccc1 (stereo not given) | – | inconclusive: 23.8 µM [inhibitor, partial curve] |
| COc1cc([N+](=O)[O-])ccc1NC(=O)C1C2C=CC(C2)C1C(=O)O (stereo not given) | inactive: -2.62% | – |
| COc1c(C)cccc1C(=O)Nc1ccc(OCC(=O)N2CCOCC2)cc1C | inactive: 1.75% | – |
| O=C(NCCc1ccc(Cl)cc1)c1cc(-c2ccccn2)nc2ccccc12 | – | active: 18.9 µM |
| CCc1ccc(Sc2cc(C(=O)NCCN3CCOCC3)c3ccccc3n2)cc1 | inactive: -7.92% | – |
| COc1ccc(N2CCN(c3ccc(S(=O)(=O)N(C(C)C)C(C)C)cn3)CC2)cc1 | inactive: -15.1% | – |
| Cc1[nH]n(-c2ccccc2)c(=O)c1/C=N/NC(=O)c1cccc(F)c1 | inactive: -5.63% | – |
| O=C(CCN1CCCCC1)c1cccc(Cl)c1 | – | inconclusive: 10.6 µM [inhibitor, partial curve] |
| CCNC(=O)N(C)C[C@H]1N[C@@](C)(C(=O)OC)[C@H]2C(=O)N(C)C(=O)[C@@H]12 | – | inconclusive: 29.9 µM [inhibitor, single point] |
| Cc1ccc(O)c(CNc2ccc(S(=O)(=O)Nc3nccs3)cc2)c1 | – | inconclusive: 26.7 µM [inhibitor, partial curve] |
| CCc1cccc(N(C(=O)c2csnn2)C(C(=O)NC2CCCCC2)c2ccncc2)c1 (stereo not given) | inactive: -5.11% | – |
| CCN(CC)S(=O)(=O)c1ccc(O)c(NC(=O)COc2ccc(S(=O)(=O)N3CCOCC3)cc2)c1 | – | active: 23.8 µM |
| O=C1c2ccccc2C(=O)N1c1ncn[nH]1 | – | inconclusive: 37.7 µM [inhibitor, partial curve] |
| COc1ccc(C=C2C=C(C(C)(C)C)C(=O)C(C(C)(C)C)=C2)cc1OC | – | active: 29.9 µM |
| COC(=O)/C=C1/SC(=NC(=O)c2cccc([N+](=O)[O-])c2)NC1=O | – | inconclusive: 18.9 µM [inhibitor, partial curve] |
| Cc1ccc2sc(N(CCCN(C)C)C(=O)CCS(=O)(=O)c3ccccc3)nc2c1C | – | inconclusive: 9.47 µM [inhibitor, partial curve] |
| CCc1ccc(Nc2n[n+](-c3ccccc3)c(-c3cccc(C)c3)s2)cc1 | inactive: -19.8% | – |
| CN1CCN(CCCNC(=O)c2ccc3c(Cl)c4c(nc3c2)CCCC4)CC1 | inactive: -19.2% | – |
| Clc1ccc2nc(-c3cccc(Br)c3)c(Cc3ccsc3)n2c1 | – | inconclusive: 26.7 µM [inhibitor, partial curve] |
| O=c1oc2cc(Oc3ccc(C(F)(F)F)cc3[N+](=O)[O-])ccc2c2c1CCC2 | inactive: -17.5% | – |
| Cc1ccc(C2CC(C(F)(F)F)n3nc(C(=O)Nc4c(C)n(C)n(-c5ccccc5)c4=O)cc3N2)cc1 (stereo not given) | – | inconclusive: 18.9 µM [inhibitor, single point] |
| CC(C(=O)Nc1ncc([N+](=O)[O-])s1)N1C(=O)c2ccccc2S1(=O)=O (stereo not given) | inactive: -25.4% | – |

| Compound | max response, negative = inhibition | Potency |
| --- | --- | --- |
| Cc1ccc([C@H]2C[C@@H](n3cc(COC(=O)c4ccccc4)nn3)[C@H](O)CN2Cc2cccs2)cc1 | inactive: -0.986% | – |
| CCCCN(C(=O)CSc1cc(C)c2ccccc2n1)c1c(N)n(Cc2ccccc2)c(=O)[nH]c1=O | – | inconclusive: 16.8 µM [inhibitor, partial curve] |
| O=S1(=O)c2ccccc2N=NN1Cc1ccc(Cl)cc1 | – | inconclusive: 29.9 µM [inhibitor, partial curve] |
| COC(=O)CCC(=O)OC1(C)C(=O)C2=CN(CC3CC3)C(c3ccc(OC)cc3)=CC2=C(Br)C1=O (stereo not given) | – | inconclusive: 11.9 µM [inhibitor, single point] |
| CCC(=O)Nc1ccc(C(=O)COC(=O)c2nc3nccc(C)n3n2)cc1 | – | inconclusive: 21.2 µM [inhibitor, partial curve] |
| Cc1cc(C)cc(NC(=O)COc2ccc(C(=S)N3CCOCC3)cc2)c1 | inactive: -10.7% | – |
| CCCNC(=O)c1c(O)c2c([nH]c1=O)CCCC2 | – | inconclusive: 8.44 µM [inhibitor, single point] |
| CCOC(=O)C1(CC2CCCCO2)CCN(Cc2ccc(OC)cc2F)CC1 (stereo not given) | – | inconclusive: 18.9 µM [inhibitor, partial curve] |
| COc1ccc(NC(=O)c2cc(=O)[nH]c3ccccc23)cc1 | inactive: -3.3% | – |
| Cc1[nH]n(-c2ccccc2)c(=O)c1C(c1cccc([N+](=O)[O-])c1)c1c(C)[nH]n(-c2ccccc2)c1=O | – | active: 23.8 µM |
| Cn1c(CCNC(=O)c2cccs2)n[nH]c1=S | inactive: -8.98% | – |
| COC(=O)COc1ccc(/C=N/NC(=O)CN(c2ccccc2OC)S(=O)(=O)c2ccccc2)cc1 | inactive: -24.1% | – |
| CC1(C)Oc2ccc3ccc(=O)oc3c2/C(=C/Nc2ccc(O)cc2)C1=O | – | inconclusive: 26.7 µM [inhibitor, single point] |
| O=C(CN1CCN(S(=O)(=O)N2CCOCC2)CC1)Nc1cc(Cl)ccc1Cl | inactive: -4.29% | – |
| COc1ccccc1-c1nnc(SC/C(O)=C(\C#N)c2nc3ccccc3[nH]2)n1C1CCCCC1 | – | inconclusive: 26.7 µM [inhibitor, partial curve] |
| C=Cc1ccc2c(c1)N(C)C(=C)S2 | – | inconclusive: 26.7 µM [inhibitor, partial curve] |
| CCC(C)NC(=O)CNC(=S)N(Cc1ccccc1)Cc1cccnc1 (stereo not given) | inactive: -2.76% | – |
| Cc1csc(=O)n1CCC(=O)OCC(=O)NNC(=O)c1ccc(Cl)cc1 | – | inconclusive: 21.2 µM [inhibitor, partial curve] |
| COc1cc(/C=C2/C(=O)NN(c3ccc(F)cc3)C2=O)cc(Cl)c1O | – | active: 29.9 µM |
| O=C(CCNc1ccccc1)c1cccc([N+](=O)[O-])c1 | – | inconclusive: 18.9 µM [inhibitor, partial curve] |
| CN1CCN(c2ccc(CNC(=O)C3(C)Cc4c(-c5ccccc5)ccnc4O3)cc2)CC1 (stereo not given) | inactive: -4.77% | – |
| CSC1=C(C#N)C(c2ccccc2Cl)C2=C(N1)c1ccccc1C2=O (stereo not given) | – | inconclusive: 18.9 µM [inhibitor, partial curve] |
